Laboratory results: PubChem BioAssay AID602196 (INSERM, 2012)
In all, the deposit lists about 23,000 reagents; below is a random part of them. Over the whole deposit, 455 (2%) got an active call. 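Active includes both protection and sensitisation; some change values fall well beyond the stated -50 to +50 range.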 Not all columns of the deposit are shown. Reagent sequences are not shown. The record does not give: the amount of reagent.

Test: 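Genes whose knock-down alters cisplatin killing of lung cancer cells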
System: human A549 lung cancer cells
Reagent: siRNA pair against human genes
Duration: 48 h transfection before cisplatin; time from cisplatin to read-out not stated
Challenge: cisplatin at a dose killing half of control-siRNA cells; exact dose and duration not given
Detection: 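Cisplatin cell death as a shift from the 50% death seen with control siRNA; siRNAs toxic or growth-blocking alone scored 0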
Direction: two-siRNA summed score (-2 to +2): higher = both siRNAs protect from cisplatin killing; -2 means both sensitise
Active means: 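Each siRNA scores 0 if harmful alone by LDH or WST-1, otherwise +1 if it reduces and -1 if it increases cisplatin killing; a gene is active when both siRNAs agree (sum +2 or -2)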
Meaning of the calls: active = both siRNAs shift cisplatin killing the same way; inactive = no consistent shift, or siRNA harmful alone

| gene symbol | two-siRNA summed score (-2 to +2) | call |
| --- | --- | --- |
| SLC10A1 | 0 | inactive |
| MTMR10 | 0 | inactive |
| STK3 | -1 | inactive |
| DOK6 | 0 | inactive |
| B3GALNT2 | 0 | inactive |
| AGTR1 | 1 | inactive |
| ZNF35 | 1 | inactive |
| AP1M2 | 0 | inactive |
| EVI2A | 0 | inactive |
| CCDC50 | 1 | inactive |
| FZD1 | 0 | inactive |
| LOC146909 | 0 | inactive |
| RPS21 | 0 | inactive |
| ANXA6 | 0 | inactive |
| FAM241A | 0 | inactive |
| ZIM2 | 0 | inactive |

Already shown: an excerpt of the list.
| gene symbol | two-siRNA summed score (-2 to +2) | call |
| --- | --- | --- |
| CCDC50 | 1 | inactive |
| FZD1 | 0 | inactive |
| LOC146909 | 0 | inactive |
| RPS21 | 0 | inactive |
| ANXA6 | 0 | inactive |

The results go on.
| gene symbol | two-siRNA summed score (-2 to +2) | call |
| --- | --- | --- |
| FAS | 0 | inactive |
| DNAJC22 | 0 | inactive |
| SELE | 0 | inactive |
| ZNF677 | 0 | inactive |
| RAD23BP1 | 0 | inactive |
| CYP1A1 | 0 | inactive |
| LOC440984 | 1 | inactive |
| CPA6 | 0 | inactive |
| MBD4 | 0 | inactive |
| LINC01777 | 0 | inactive |
| TP53INP2 | 0 | inactive |
| TRAF3IP2 | 0 | inactive |
| LOC401579 | 0 | inactive |
| SHISA7 | 0 | inactive |
| CAPNS1 | 0 | inactive |
| SLC5A3 | 0 | inactive |
| IKBKE | 1 | inactive |
| SFRP2 | 1 | inactive |
| HMGXB4 | 0 | inactive |
| SRRM1 | 1 | inactive |
| FCSK | -1 | inactive |
| NPTX1 | 0 | inactive |
| PWWP2B | 0 | inactive |
